At least one structure is not confirmed: it was looked up by name or label, or the drawing left a doubt.
Test system: Rat glioma 9 L cells
Experiment: 9L rat glioma implanted subcutaneously in rats
Settings: SC in female Hsd:SD rats; followed 54 days; doses as in Table 7
Description: Rat glioma 9 L cells (10^6 cells) were implanted subcutaneously in female Hsd:SD rats. […] Temozolomide (TMZ) was administered orally three times, four days apart. The rats were followed for 54 days.

SMILES: Cn1nnc2c(C(N)=O)ncn2c1=O [TMZ, Temozolomide]
- CR (animals): 3/5

— patent US8361992B2 (Dekk-Tec, Inc., priority 2009, dated 2013)
